Structures can show the parent of a compound that is named as a salt. Where two headings read alike, the source gives them in different places.
System: P450

LIGNOCAINE-HCl in culture medium (0 hours, 80 μg/ml added at the beginning, 4 liver MCs per ml): 62.2 µg/mL
LIGNOCAINE-HCl in culture medium (7.1 hours): 33.9 µg/mL
LIGNOCAINE-HCl in culture medium (24.1 hours): 23.7 µg/mL
LIGNOCAINE-HCl in culture medium (30.1 hours): 20.9 µg/mL
Concentration of lignocaine in culture medium (course) (liver MCs ex vivo): declined for 30 hours
Structure (SMILES): CCN(CC)CC(=O)Nc1c(C)cccc1C [LIGNOCAINE-HCl, lignocaine-HCl]
